# In patent US5015628A, “Anticariogenic phosphopeptides” (The University of Melbourne, priority 1986, dated 1991):
# Not every detail of the peptide structures is certain; ends, links or a residue may be inferred. Where a SMILES comes first, the peptide text is derived from it. [ ]: non-standard residue; d: D form. pS = N[C@@H](COP(=O)(O)O)C(=O)O
# Assays:
# [1] = Hydroxyapatite Dissolution Rate Assay (Test 1)
# [2] = Sequestration of calcium phosphate / calcium binding by the peptide; type: physicochemical
# [3] = Intra-Oral Caries Test (Test 2); type: in vivo; conditions: plaque exposed twice a day to the peptide T1 solution
# Experimental: The anticariogenicity of phosphopeptide T1 was determined using a modification of the intra-oral caries test of Koulourides and Ostrom (Caries Res. 10:442-482, 1976). Enamel slabs were inset in a removable intra-oral appliance to simulate an approximal area. This was done on both sides of the removable appliance (left and right). The appliance was worn to allow plaque accumulation in the simulated approximal areas. Eight times a day the appliance was removed and placed in a solution at 37° C. The solution was 2% w/v sucrose, 2% w/v glucose, 140 mM KCl, 20 mM NaCl at pH 7.0. Twice a day the right side enamel slabs received exposure to a solution containing 1.8% w/v calcium phosphate T1 in 140 mM KCl, 20 mM NaCl at pH 7.0, while the left side received only the salt solution. At the completion of the experiment the enamel slabs were removed, sectioned and subjected to microradiography and microhardness testing. […] The results were confirmed by microhardness analysis. Plaque was also taken from both sides of the appliance and analysed for calcium phosphate, serine phosphate and peptide T1 using a competitive, quantitative, enzyme-linked immunosorbent assay (ELISA) utilising monoclonal antipeptide T1 antibodies.
compound,measurement,setting,value
"CC[C@H](C)[C@H](NC(=O)[C@H](COP(=O)(O)O)NC(=O)[C@H](CCC(=O)O)NC(=O)[C@H](C)NC(=O)[C@H](CCC(=O)O)NC(=O)[C@H](CCSC)NC(=O)[C@@H](N)CCC(=O)O)C(=O)N[C@@H](COP(=O)(O)O)C(=O)N[C@@H](COP(=O)(O)O)C(=O)N[C@@H](COP(=O)(O)O)C(=O)N[C@@H](CCC(=O)O)C(=O)N[C@@H](CCC(=O)O)C(=O)N[C@H](C(=O)N[C@H](C(=O)N1CCC[C@H]1C(=O)N[C@@H](CC(N)=O)C(=O)N[C@@H](COP(=O)(O)O)C(=O)N[C@H](C(=O)N[C@@H](CCC(=O)O)C(=O)N[C@@H](CCC(N)=O)C(=O)N[C@@H](CCCCN)C(=O)O)C(C)C)C(C)C)[C@@H](C)CC [T1, Glu-Met-Glu-Ala-Glu-Pse-Ile-Pse-Pse-Pse-Glu-Glu-Ile-Val-Pro-Asn-Pse-Val-Glu-Gln-Lys] (H-EMEAE[pS]I[pS][pS][pS]EEIVPN[pS]VEQK-OH)",greater retention of fluoride in the hydroxyapatite column,[1],50%
same,mole of Ca++ bound by one mole of peptide,"[2]; chloride as the counter ion, binding only to serine phosphates",5 mol
same,mole of CaHPO4 bound by one mole of peptide,[2]; per one mole of peptide,16 mol
same,increase of the plaque level of calcium phosphate,[3],2-4 fold
